In ChEMBL document CHEMBL4513149, “CO-ADD screening of MMV (CH) - MMV compounds” (2021):
Some of the results follow. Measured potencies and affinities stand elsewhere.

Tested on: Pseudomonas aeruginosa
Details: Concentration 20 uM; ASSAY_TEST Inhibition of Bacterial Growth; detection method Absorption (OD600); MEDIA CAMHB; plate type 384well; NBS; CORNING #3640; time 18 hr

Compound | Inhibition [%]
CCN(CC)C(=O)N1CCN(C)CC1 [DIETHYLCARBAMAZINE] | 13.01
FC(F)(F)c1nnc2ccc(Cl)nn12 | 11.49
COc1ccc(Cl)cc1NC(=O)CN(C)C(=O)c1cnn(-c2ccccc2)n1 | 2.45
FC(F)(F)c1cccc(-c2nc3c(NCc4ccncc4)nccc3[nH]2)c1 | 8.07
CNC(=O)c1cc(S(=O)(=O)N2CCN(c3ccccn3)CC2)cs1 | 3.66
O=C1Nc2ccc(Br)cc2C12NCCc1c2[nH]c2ccccc12 (centres undefined) | 10.57
CN1CCN(S(=O)(=O)c2ccc(-c3ccc4c(Nc5ccc6nn[nH]c6c5)ccnc4c3)cc2)CC1 | 1.3
CCc1cc(=O)n(C)c(SC(C)C(=O)Nc2ccc(F)cc2)n1 (centres undefined) | 9.39
Cc1ccc(NC(=O)CC2COc3ccccc3O2)cc1Cl (centres undefined) | 10.55
COc1ccc(S(=O)(=O)Nc2ccc(CN3CCN(C(=O)c4cccc(C#N)c4)CC3)cc2)cc1 | -4.07
COc1ccccc1OCCCCn1c(C2CC2)nc2ccccc21 | 10.96
CC(C(=O)N1CCCC1)N1CCN(S(=O)(=O)c2ccc(C(C)(C)C)cc2)CC1 (centres undefined) | 0.15
CC(Oc1ccccc1)C(=O)Nc1nc(-c2ccccn2)cs1 (centres undefined) | -9.98
O=C(c1[nH]nc2c1CCCC2)N1CCN(Cc2ccc3c(c2)OCO3)CC1 | 8.14
COc1cc(C(F)(F)F)nc2ccc(C)c(N)c12 | 7.92
Cc1cc(C)c2cc(C(=O)NC3CCCCCCC3)[nH]c2c1 | 11.76
Cc1ccc2[nH]c(C3CCCNC3)c(-c3ccncc3)c2c1.Cl.Cl (centres undefined) | 3.32
CCCCc1ccc(C(=O)Nc2nccc3ccccc23)nc1 | 4.88
CC(=O)Nc1ccc(-c2noc(CC3CCCN(Cc4cccc(F)c4C)C3)n2)cc1 (centres undefined) | 5.48
Nc1ncc(-c2ccc(C(F)(F)F)nc2)cc1-c1ccc(C(F)(F)F)nc1 | 5.43
Cc1cnc(N2CCN[C@@H](Cc3ccccc3)C2)nc1Oc1ccc(-n2ccnc2)cc1.Cl | 2.78
CCCCN(CCCC)c1c(C#N)cc(S(=O)(=O)Nc2ccccc2)cc1C#N | -2.72
CCCNC(=O)N1CCC2(CC1)CC(=O)c1cc(C)ccc1O2 | 12.88
Brc1c(-c2ccc3c(c2)OCO3)nc2ncccn12 | 7.52

Compound | Inhibition [%]
Cc1noc(C)c1C(=O)N1CCCC(c2[nH]c3c(C)cccc3c2-c2ccncc2)C1 (centres undefined) | 11.35
O=[N+]([O-])c1cn2c(n1)OC[C@@H](OCc1ccc(OC(F)(F)F)cc1)C2 [PRETOMANID] | 16.92
Cc1ccc(S(=O)(=O)Nc2ccc(CN3CCN(C(=O)c4cccc(C#N)c4)CC3)cc2)cc1 | 3.37
CNc1nnc(Sc2cnn(-c3ccccc3)c(=O)c2Cl)s1 | 5.85
COC(=O)c1ccc(F)cc1NS(=O)(=O)c1cccc(-c2cnn(Cc3ccccc3)c2)c1 | 21.29
Cc1cc(Cl)c(S(=O)(=O)N2CCCC2)cc1OCC(=O)NC1CCCCC1 | -0.88
O=C(NC1CC1)c1ccc(CSCc2ccccc2Cl)o1 | 0.7
COc1ccc(-c2cnc3ccc(N4CCCC4)nn23)cc1OC | 11.73
CCC(C)NC(=O)c1ccc(NC(=O)C2(c3ccccc3)CCCC2)cc1 (centres undefined) | 3.97
CCC(=O)Nc1ccccc1C(=O)Nc1ccccn1 | 8.42
CC1CCCCN1C(=O)NCCc1coc(-c2ccc(F)cc2)n1 (centres undefined) | 11.85
CC1COC2(CCN(c3nc(=O)c4cc(C(F)(F)F)cc([N+](=O)[O-])c4s3)CC2)O1 (centres undefined) | 8.72
Cc1nnc(NC(=O)c2cn(-c3ccccc3)nc2-c2ccccc2C)o1 | 16.6
Cc1ccccc1C(=O)N1N=C(Nc2ccccc2)SC1(C)C | 11.14
CC[C@H](CO)NCCN[C@H](CC)CO.Cl.Cl | 8.76
CNc1snc(C)c1C(=O)NCCOc1ccc(OC)cc1 | 11.64
CC(C)NCC(=O)Nc1cccc(C(=O)Nc2cccc(C(F)(F)F)c2)c1 | 0.73
O=C(C1CCN(c2nnnn2-c2ccccc2)CC1)N1CCc2ccccc2C1 | 10.05
COc1cc(C2=NCCN2)ccc1-c1cn(-c2cccc(C3=NCCN3)c2)nn1 | 20.94
COc1cccc(NC(=O)c2c(NC(=O)c3cccnc3)sc3c2CCC3)c1 | 4.86
CCOc1ccc(-c2nc(NC(=O)CS(=O)(=O)c3ccccc3)sc2C)cc1 | 8.92
COc1ccc(-c2onc(C(F)(F)F)c2-c2ccc(Cl)cc2)c(O)c1 | 17.62
NCCC(O)C(=O)N[C@@H]1C[C@H](N)[C@@H](OC2O[C@H](CN)[C@@H](O)[C@H](O)[C@H]2O)[C@H](O)C1OC1O[C@H](CO)[C@@H](O)[C@H](N)[C@H]1O.O=S(=O)(O)O.O=S(=O)(O)O (some centres undefined) | 14.8
CC(Oc1cccc(Cl)c1)C(=O)Nc1ccc2oc(-c3ccncc3)nc2c1 (centres undefined) | 10.14

Compound | Inhibition [%]
CCCc1ccc(S(=O)(=O)Nc2ccc(CN3CCN(CC4CC4)CC3)cc2)cc1 | 14.16
COc1ccc(-c2nc(-c3cccc(NC(=O)Cc4ccc(F)cc4)c3)no2)cc1OC | 9.97
Cc1cc(NCC(C)C)c2[nH]nc(-c3ccccc3)c2n1 | 14.96
CNC(=O)C1Cc2c([nH]c3cc(Cl)ccc23)C2(CCN(CCc3ccccc3)CC2)N1 (centres undefined) | 10.67
O=C(Nc1cccc(-c2ccc(NCCCN3CCCC3)nc2)c1)c1ccccc1 | 7.76
CCn1cnc2c(Nc3cc(F)cc(F)c3)nc(C#N)nc21 | 11.19
CCOc1ccccc1NC(C)C(=O)Nc1cc(C(F)(F)F)ccc1N1CCOCC1 (centres undefined) | 9.09
CCOc1ccc(-c2nc(CNCCc3ccc(F)cc3)cs2)cc1 | 16.88
Cc1ccc2cc(C3NC(=O)c4ccccc4N3)c(Cl)nc2c1 (centres undefined) | 15.71
CC(=O)O.CC(=O)O.Nc1ncnc2c1ncn2[C@@H]1O[C@H](COS(=O)(=O)NC(=O)c2ccccc2O)[C@@H](O)[C@H]1O | 9.27
Cc1cc(O)nc(-n2nc(C)cc2C)n1 | 22.1
Cc1nc(-c2cccc(NCc3ccccc3)c2)[nH]c1C | 19.16
CC(C)=CCC/C(C)=C\CNCCNC1C2CC3CC(C2)CC1C3 (centres undefined) | 27.33
Cl.c1ccc(C[C@@H]2CN(c3nccc(Oc4ccc(-n5ccnc5)cc4)n3)CCN2)cc1 | 9.03
N#Cc1ccc(-c2ccc(OCC(N)=O)cc2)cc1 | 3.34
CC(C)(C)c1ccc(N[C@@H]2CCCC[C@H]2NC(=O)c2ccco2)cc1 | 0.79
CCOC(=O)c1c(NC(=O)c2c(F)c(F)c(F)c(F)c2F)sc(C(N)=O)c1C | 19.78
Clc1ccc(CN2CCN(C3=NCCN3)CC2)cc1Cl | 6.25
NC(=O)c1cc(-c2ccsc2)ccc1OCCOc1ccccc1 | 15.94
COc1ccc(C2CC(c3cccs3)=NN2C(=O)c2ccco2)cc1OC (centres undefined) | 16.11
CNC(=O)C1Cc2ccccc2N1C(=O)Cc1ccc(F)cc1 (centres undefined) | 4.48
Nc1nccc2ccc(-c3ccc4nccn4c3)cc12 | 30.48
CC(C)(C)n1nc(-c2ccccc2)c2c(N)ncnc21 | 1.86
CS(=O)(=O)N1CCC(CCn2nc(Cc3cccc4ccccc34)c3c(N)ncnc32)CC1 | 1.77

Of the compounds above, 4 have two or more sulfur atoms.
Compound | Inhibition [%]
CNC(=O)c1cc(S(=O)(=O)N2CCN(c3ccccn3)CC2)cs1 | 3.66
CNc1nnc(Sc2cnn(-c3ccccc3)c(=O)c2Cl)s1 | 5.85
CCOc1ccc(-c2nc(NC(=O)CS(=O)(=O)c3ccccc3)sc2C)cc1 | 8.92
NCCC(O)C(=O)N[C@@H]1C[C@H](N)[C@@H](OC2O[C@H](CN)[C@@H](O)[C@H](O)[C@H]2O)[C@H](O)C1OC1O[C@H](CO)[C@@H](O)[C@H](N)[C@H]1O.O=S(=O)(O)O.O=S(=O)(O)O (some centres undefined) | 14.8

Next structures:

Compound | Inhibition [%]
O=C(CN1CCOCC1)Nc1ccc2ncnc(Nc3ccc(OCc4cccc(F)c4)c(Cl)c3)c2c1 | 8.7
COC(=O)C1=C(C)NC(C)=C(C(=O)OC(C)C)C1c1cccc2nonc12 (centres undefined) [ISRADIPINE] | 2.23
CC(=O)N(CCN(C(=O)c1ccc(F)cc1)c1ccccc1)c1ccccc1 | 7.38
CC(C)(C)OC(=O)N1CCN(c2cc(-c3ccc(Oc4ccccc4)cc3)n[nH]2)CC1 | 20.5
COc1ccc(-c2nn(C(C)C)c3ncnc(N)c23)cc1OC | 9.3
Cc1nn(C)cc1C(C)Nc1nncc(-c2ccc(C(F)(F)F)cc2)n1 (centres undefined) | -4.15
CC(C)(C)C(=O)N(CCCCCCN1C[C@H](O)[C@@H](O)[C@H](O)[C@H]1CO)C1CCCCCC1 | -1.24
O=C(C1CCN(c2cc(-n3cccc3)ncn2)CC1)N1CCc2ccccc2C1 | 5.31
COc1cccn2c(C(=O)N3CCCCC3)c(C(F)(F)F)nc12 | 8.62
CCOc1ccc2cc(-c3nn(CC4CCN(C)CC4)c4ncnc(N)c34)ccc2c1.Cl | 9.74
COc1ccccc1C(C)NCC(=O)Nc1cc(C(F)(F)F)ccc1Cl (centres undefined) | 9.87
c1ccc(Oc2ccc(-c3cc(N4CCOCC4)[nH]n3)cc2)cc1 | 7.11
CCOC(=O)c1noc(N)c1-c1ccccc1 | 18.52
Nc1cccnc1Nc1ccc(Cl)cc1 | -2.6
COc1ccc(Oc2ccc([C@@H](C)N(C)c3ncc4c(N)nc(N)nc4n3)cc2)cc1 | 20.64
Cc1cccc(Cn2ccc(NC(=O)c3ccc4c(c3)OCO4)n2)c1 | 12.98
COc1ccc(C(=N)N)cc1-c1cn(-c2ccc(C(=N)N)cc2)nn1.Cl.Cl | 5.57
Nc1ncc(-c2cn[nH]c2)cc1-c1nc2cc(Cl)cnc2[nH]1 | 0.43
COc1ccc(Nc2ccccc2NC(=O)c2ccc(O)nc2)cc1 | -7.97
O=C(NCc1nnc2n1CCCCC2)c1ccc(-c2ccc(F)cc2)o1 | 9.27
COc1cc(CN2CCC3(C=Cc4ccccc43)CC2)cc2c1OCO2 | -4.35
CC(C)n1nc(-c2cc3c(Cl)cccc3[nH]2)c2c(N)ncnc21 | 1.75
